Experimental data published in patent US8722690B2, “Mesoionic pesticides” (E I du Pont de Nemours and Company, priority 2009, dated 2014).
Some results were stated once for a whole list of compounds, not compound by compound. At least one compound was matched to its structure with a doubt left.

Key:
[1] = test system: fall armyworm (Spodoptera frugiperda); test: Test B: control of fall armyworm on maize plant, foliar spray; type: in vivo; settings: very good to excellent levels of control efficacy
[2] = test system: diamondback moth (Plutella xylostella); test: Test A: control of diamondback moth on radish plant, foliar spray; type: in vivo; settings: 6 days, very good to excellent levels of control efficacy

Measured: control efficacy: feeding damage (40% or less feeding damage and/or 100% mortality)

Cc1cccn2c(=O)c(-c3cc(C(F)(F)F)ccc3Cl)c([O-])[n+](Cc3cnc(Cl)s3)c12 [Compound 103]
≤ 40%: [1]; sprayed at 10 ppm | [1]; sprayed at 50 ppm | [2]; sprayed at 10 ppm | [2]; sprayed at 50 ppm

Cc1ncc(C[n+]2c([O-])c(-c3cc(Cl)cc(C(F)(F)F)c3)c(=O)n3cccc(C)c32)s1 [Compound 133]
≤ 40%: [1]; sprayed at 10 ppm | [1]; sprayed at 50 ppm | [2]; sprayed at 10 ppm | [2]; sprayed at 50 ppm

C=Cc1cccn2c(=O)c(-c3cccc(C(F)(F)F)c3)c([O-])[n+](Cc3cnc(Cl)s3)c12 [Compound 154]
≤ 40%: [1]; sprayed at 10 ppm | [1]; sprayed at 50 ppm | [2]; sprayed at 10 ppm | [2]; sprayed at 50 ppm

Cc1cccn2c(=O)c(-c3ccc(Cl)c(Cl)c3)c([O-])[n+](Cc3cnc(Cl)s3)c12 [Compound 162]
≤ 40%: [1]; sprayed at 10 ppm | [1]; sprayed at 50 ppm | [2]; sprayed at 10 ppm | [2]; sprayed at 50 ppm

Cc1cccn2c(=O)c(-c3cc(F)cc(Br)c3)c([O-])[n+](Cc3cnc(Cl)s3)c12 [Compound 163]
≤ 40%: [1]; sprayed at 10 ppm | [1]; sprayed at 50 ppm | [2]; sprayed at 10 ppm | [2]; sprayed at 50 ppm

COc1cc(-c2ccc(Cl)cc2)cc(-c2c([O-])[n+](Cc3cnc(Cl)s3)c3c(C)cccn3c2=O)c1 [Compound 174]
≤ 40%: [1]; sprayed at 10 ppm | [1]; sprayed at 50 ppm | [2]; sprayed at 50 ppm

Cc1cccn2c(=O)c(-c3cccc(Oc4ccc(F)cc4)c3)c([O-])[n+](Cc3cnc(Cl)s3)c12 [Compound 175]
≤ 40%: [1]; sprayed at 10 ppm | [1]; sprayed at 50 ppm | [2]; sprayed at 10 ppm | [2]; sprayed at 50 ppm

Cc1cccn2c(=O)c(-c3cccc(Oc4ccccc4F)c3)c([O-])[n+](Cc3cnc(Cl)s3)c12 [Compound 176]
≤ 40%: [1]; sprayed at 10 ppm | [1]; sprayed at 50 ppm | [2]; sprayed at 10 ppm | [2]; sprayed at 50 ppm

Cc1cccn2c(=O)c(-c3cccc(Oc4cccc(F)c4)c3)c([O-])[n+](Cc3cnc(Cl)s3)c12 [Compound 177]
≤ 40%: [1]; sprayed at 10 ppm | [1]; sprayed at 50 ppm | [2]; sprayed at 10 ppm | [2]; sprayed at 50 ppm

Cc1cccn2c(=O)c(-c3cc(F)cc(-c4ccc(Cl)cc4)c3)c([O-])[n+](Cc3cnc(Cl)s3)c12 [Compound 178]
≤ 40%: [1]; sprayed at 10 ppm | [1]; sprayed at 50 ppm | [2]; sprayed at 10 ppm | [2]; sprayed at 50 ppm

Cc1cccn2c(=O)c(-c3cccc(Oc4ccccc4)c3)c([O-])[n+](Cc3cnc(Cl)s3)c12 [Compound 184]
≤ 40%: [1]; sprayed at 10 ppm | [1]; sprayed at 50 ppm | [2]; sprayed at 10 ppm | [2]; sprayed at 50 ppm

Cc1cccn2c(=O)c(-c3cccc(C(C)(C)C)c3)c([O-])[n+](Cc3cnc(Cl)s3)c12 [Compound 187]
≤ 40%: [1]; sprayed at 10 ppm | [1]; sprayed at 50 ppm | [2]; sprayed at 10 ppm | [2]; sprayed at 50 ppm

Cc1cccn2c(=O)c(-c3cccc(-c4ccc(Cl)cc4F)c3)c([O-])[n+](Cc3cnc(Cl)s3)c12 [Compound 190]
≤ 40%: [1]; sprayed at 10 ppm | [1]; sprayed at 50 ppm | [2]; sprayed at 10 ppm | [2]; sprayed at 50 ppm

CCc1cccn2c(=O)c(-c3cccc(-c4ccc(Cl)cc4)c3)c([O-])[n+](Cc3cnc(Cl)s3)c12 [Compound 192]
≤ 40%: [1]; sprayed at 50 ppm | [2]; sprayed at 50 ppm

Cc1ccc(-c2cccc(-c3c([O-])[n+](Cc4cnc(Cl)s4)c4c(C)cccn4c3=O)c2)cc1 [Compound 194]
≤ 40%: [1]; sprayed at 10 ppm | [1]; sprayed at 50 ppm | [2]; sprayed at 10 ppm | [2]; sprayed at 50 ppm

Cc1cccn2c(=O)c(-c3cccc(-c4ccc(F)cc4)c3)c([O-])[n+](Cc3cnc(Cl)s3)c12 [Compound 195]
≤ 40%: [1]; sprayed at 10 ppm | [1]; sprayed at 50 ppm | [2]; sprayed at 10 ppm | [2]; sprayed at 50 ppm

CCc1cccn2c(=O)c(-c3cccc(Br)c3)c([O-])[n+](Cc3cnc(Cl)s3)c12 [Compound 198]
≤ 40%: [1]; sprayed at 10 ppm | [1]; sprayed at 50 ppm | [2]; sprayed at 10 ppm | [2]; sprayed at 50 ppm

Cc1cccn2c(=O)c(-c3cccc(-c4cccc(Cl)c4)c3)c([O-])[n+](Cc3cnc(Cl)s3)c12 [Compound 200]
≤ 40%: [1]; sprayed at 10 ppm | [1]; sprayed at 50 ppm | [2]; sprayed at 10 ppm | [2]; sprayed at 50 ppm

Cc1cccn2c(=O)c(-c3cccc(-c4ccc(F)c(Cl)c4)c3)c([O-])[n+](Cc3cnc(Cl)s3)c12 [Compound 201]
≤ 40%: [1]; sprayed at 50 ppm | [2]; sprayed at 10 ppm | [2]; sprayed at 50 ppm

COc1cccn2c(=O)c(-c3cccc(-c4ccc(Cl)cc4)c3)c([O-])[n+](Cc3cnc(Cl)s3)c12 [Compound 202]
≤ 40%: [1]; sprayed at 10 ppm | [1]; sprayed at 50 ppm | [2]; sprayed at 50 ppm

CCCc1cccc(-c2c([O-])[n+](Cc3cnc(Cl)s3)c3c(C)cccn3c2=O)c1 [Compound 203]
≤ 40%: [1]; sprayed at 10 ppm | [1]; sprayed at 50 ppm | [2]; sprayed at 10 ppm | [2]; sprayed at 50 ppm

Cc1cccn2c(=O)c(-c3ccc(F)c(-c4ccc(Cl)cc4)c3)c([O-])[n+](Cc3cnc(Cl)s3)c12 [Compound 208]
≤ 40%: [1]; sprayed at 10 ppm | [1]; sprayed at 50 ppm | [2]; sprayed at 10 ppm | [2]; sprayed at 50 ppm

Cc1cccn2c(=O)c(-c3cccc(Oc4cc(Cl)ccc4Cl)c3)c([O-])[n+](Cc3cnc(Cl)s3)c12 [Compound 219]
≤ 40%: [1]; sprayed at 10 ppm | [1]; sprayed at 50 ppm | [2]; sprayed at 10 ppm | [2]; sprayed at 50 ppm

Cc1cccn2c(=O)c(-c3cccc(Oc4ccc(Cl)cc4)c3)c([O-])[n+](Cc3cnc(Cl)s3)c12 [Compound 220]
≤ 40%: [1]; sprayed at 10 ppm | [1]; sprayed at 50 ppm | [2]; sprayed at 10 ppm | [2]; sprayed at 50 ppm

COc1ccc(Oc2cccc(-c3c([O-])[n+](Cc4cnc(Cl)s4)c4c(C)cccn4c3=O)c2)cc1 [Compound 221]
≤ 40%: [1]; sprayed at 50 ppm | [2]; sprayed at 10 ppm | [2]; sprayed at 50 ppm

COc1cccn2c(=O)c(-c3ccc(F)cc3)c([O-])[n+](Cc3cnc(Cl)s3)c12 [Compound 223]
≤ 40%: [1]; sprayed at 50 ppm | [2]; sprayed at 10 ppm | [2]; sprayed at 50 ppm

Cc1cccn2c(=O)c(-c3cccc(-c4ccc(C(F)(F)F)cc4F)c3)c([O-])[n+](Cc3cnc(Cl)s3)c12 [Compound 229]
≤ 40%: [1]; sprayed at 10 ppm | [1]; sprayed at 50 ppm | [2]; sprayed at 10 ppm | [2]; sprayed at 50 ppm

COc1cc(Cl)ccc1-c1cccc(-c2c([O-])[n+](Cc3cnc(Cl)s3)c3c(C)cccn3c2=O)c1 [Compound 232]
≤ 40%: [1]; sprayed at 10 ppm | [1]; sprayed at 50 ppm | [2]; sprayed at 50 ppm
